Laboratory results published in patent US20140235649A1, “USE OF PHOSPHATASE INHIBITORS OR HISTONE DEACETYLASE INHIBITORS TO TREAT DISEASES CHARACTERIZED BY LOSS OF PROTEIN FUNCTION” (LIXTE BIOTECHNOLOGY, INC., priority 2011, published 2014).
Some of these results come from one statement about several compounds together.

System: GBA
Experiment: Western blot of GBA in patient-derived GD fibroblasts
Details: 24 hours
[1] = Type I (N370S) GD fibroblasts, untreated 38.1%
[2] = type II/III (L444P) GD fibroblasts, untreated 16%

`O=C(CCCCCCC(=O)Nc1ccccc1)NO` [SAHA, suberoylanilide hydroxamic acid, reference compound] was tested, and the GBA levels [1] was 59.6%-80.5% and the GBA levels [2] was 35%-40%.
In the case of `O=C(CCCCCNC(=O)c1ccccc1S)Nc1cccnc1` [LB-205], the GBA levels [1] is reported as 59.6%-80.5% and the GBA levels [2] is reported as 35%-40%.
